Measured values as given in publication PMC2754608, “Toll-Like Receptor 4 Decoy, TOY, Attenuates Gram-Negative Bacterial Sepsis” (PLoS ONE, 2009).
No constants are given. Whether binding was seen depends on the method and setting. Some binding calls cover weakened binding; strength is not graded here.

Sequences of proteins named here, by UniProt entry; tags and fusion partners are left off. Residues count along the entry.
UniProt O00206, residues 27-631: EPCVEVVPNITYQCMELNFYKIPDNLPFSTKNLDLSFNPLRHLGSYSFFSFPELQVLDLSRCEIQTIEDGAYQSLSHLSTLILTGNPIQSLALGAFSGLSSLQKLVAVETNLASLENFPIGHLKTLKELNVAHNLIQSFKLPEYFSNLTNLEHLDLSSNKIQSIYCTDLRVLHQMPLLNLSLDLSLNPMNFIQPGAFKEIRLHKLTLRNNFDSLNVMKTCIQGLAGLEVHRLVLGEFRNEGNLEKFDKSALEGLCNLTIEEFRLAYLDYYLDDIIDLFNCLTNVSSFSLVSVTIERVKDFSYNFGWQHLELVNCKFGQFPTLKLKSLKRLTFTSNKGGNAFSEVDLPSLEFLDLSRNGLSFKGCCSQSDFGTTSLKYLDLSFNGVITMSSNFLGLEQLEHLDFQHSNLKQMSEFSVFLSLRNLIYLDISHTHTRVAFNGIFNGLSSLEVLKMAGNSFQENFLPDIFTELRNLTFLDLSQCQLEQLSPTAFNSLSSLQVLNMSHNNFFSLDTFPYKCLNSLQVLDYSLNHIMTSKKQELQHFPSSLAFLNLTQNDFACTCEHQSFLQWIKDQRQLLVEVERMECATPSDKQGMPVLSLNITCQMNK

B1: myeloid differentiation protein-2 (MD-2) (natural protein, human, UniProt Q9Y6Y9 19-160, looked up)
chain: QKQYWVCNSSDASISYTYCDKMQYPISINVNPCIELKRSKGLLHIFYIPRRDLKQLYFNLYITVNTMNLPKRKEVICRGSDDDYSFCRALKGETVNTTISFSFKGIKFSKGKYKCVVEAISGSPEEMLFCLEFVILHQPNSN
notes: also called hMD-2

Tests used:
[1] = target: B1; assay: ELISA; 200 ng MD-2 (or BSA) coated on 96-well plates, blocked with 1% BSA; 40 µg/ml Fc, TFE, TOY3 or TOY8 for 1 hr with or without FITC-labeled LPS (10 µg/ml); HRP-conjugated anti-Fc antibody; absorbance and fluorescence (IVIS) read; both purified
[2] = target: TLR4 full-length ectodomain fused to IgG-Fc (TFE) (human) (UniProt O00206); assay: solid-phase binding of FITC-LPS, fluorescence by IVIS imaging; 200 ng Fc, TFE, TOY3 or TOY8 coated on 96-well plates; FITC-labeled LPS (10 µg/ml) with or without MD-2 (1 µg/ml) for 2 hr; fluorescence of captured FITC-LPS; both purified

Molecule | binding [1] | binding [2]
TLR4 full-length ectodomain fused to IgG-Fc (TFE) (from UniProt O00206 27-631) (Fc fusion) | binds | –
B1 | – | binds
